Experimental data as given in patent US20170001990A1 (Genentech, Inc., priority 2014, published 2017).

Target: Human recombinant carboxy-terminal his-tagged LDHA (amino acids 2-332) (Homo sapiens, UniProt P00338)

Row | SMILES | pIC50
1 | CC(CC1CC1)Oc1cccc(C2(c3ccsc3)CC(=O)C(Sc3ccccc3Cl)C(=O)N2)n1 (centres unmarked) | 6.93
2 | O=C(NCC1CC1)c1cccc(C2(c3ccsc3)CC(=O)C(Sc3ccccc3Cl)C(=O)N2)n1 (centres unmarked) [Example 242, 6-[5-(2-chlorophenyl)sulfanyl-4,6-dioxo-2-(3-thienyl)-2-piperidyl]-N-(cyclopropylmethyl) pyridine-2-carboxamide] | 6.62

pIC50: −log10 of the molar value. The match of structure and compound is tentative.
